Among the data in article PMC3205025 are binding values, retold here.

Protein sequences, listed by entry. Tags and fused reporters are not part of them.
UniProt P11531: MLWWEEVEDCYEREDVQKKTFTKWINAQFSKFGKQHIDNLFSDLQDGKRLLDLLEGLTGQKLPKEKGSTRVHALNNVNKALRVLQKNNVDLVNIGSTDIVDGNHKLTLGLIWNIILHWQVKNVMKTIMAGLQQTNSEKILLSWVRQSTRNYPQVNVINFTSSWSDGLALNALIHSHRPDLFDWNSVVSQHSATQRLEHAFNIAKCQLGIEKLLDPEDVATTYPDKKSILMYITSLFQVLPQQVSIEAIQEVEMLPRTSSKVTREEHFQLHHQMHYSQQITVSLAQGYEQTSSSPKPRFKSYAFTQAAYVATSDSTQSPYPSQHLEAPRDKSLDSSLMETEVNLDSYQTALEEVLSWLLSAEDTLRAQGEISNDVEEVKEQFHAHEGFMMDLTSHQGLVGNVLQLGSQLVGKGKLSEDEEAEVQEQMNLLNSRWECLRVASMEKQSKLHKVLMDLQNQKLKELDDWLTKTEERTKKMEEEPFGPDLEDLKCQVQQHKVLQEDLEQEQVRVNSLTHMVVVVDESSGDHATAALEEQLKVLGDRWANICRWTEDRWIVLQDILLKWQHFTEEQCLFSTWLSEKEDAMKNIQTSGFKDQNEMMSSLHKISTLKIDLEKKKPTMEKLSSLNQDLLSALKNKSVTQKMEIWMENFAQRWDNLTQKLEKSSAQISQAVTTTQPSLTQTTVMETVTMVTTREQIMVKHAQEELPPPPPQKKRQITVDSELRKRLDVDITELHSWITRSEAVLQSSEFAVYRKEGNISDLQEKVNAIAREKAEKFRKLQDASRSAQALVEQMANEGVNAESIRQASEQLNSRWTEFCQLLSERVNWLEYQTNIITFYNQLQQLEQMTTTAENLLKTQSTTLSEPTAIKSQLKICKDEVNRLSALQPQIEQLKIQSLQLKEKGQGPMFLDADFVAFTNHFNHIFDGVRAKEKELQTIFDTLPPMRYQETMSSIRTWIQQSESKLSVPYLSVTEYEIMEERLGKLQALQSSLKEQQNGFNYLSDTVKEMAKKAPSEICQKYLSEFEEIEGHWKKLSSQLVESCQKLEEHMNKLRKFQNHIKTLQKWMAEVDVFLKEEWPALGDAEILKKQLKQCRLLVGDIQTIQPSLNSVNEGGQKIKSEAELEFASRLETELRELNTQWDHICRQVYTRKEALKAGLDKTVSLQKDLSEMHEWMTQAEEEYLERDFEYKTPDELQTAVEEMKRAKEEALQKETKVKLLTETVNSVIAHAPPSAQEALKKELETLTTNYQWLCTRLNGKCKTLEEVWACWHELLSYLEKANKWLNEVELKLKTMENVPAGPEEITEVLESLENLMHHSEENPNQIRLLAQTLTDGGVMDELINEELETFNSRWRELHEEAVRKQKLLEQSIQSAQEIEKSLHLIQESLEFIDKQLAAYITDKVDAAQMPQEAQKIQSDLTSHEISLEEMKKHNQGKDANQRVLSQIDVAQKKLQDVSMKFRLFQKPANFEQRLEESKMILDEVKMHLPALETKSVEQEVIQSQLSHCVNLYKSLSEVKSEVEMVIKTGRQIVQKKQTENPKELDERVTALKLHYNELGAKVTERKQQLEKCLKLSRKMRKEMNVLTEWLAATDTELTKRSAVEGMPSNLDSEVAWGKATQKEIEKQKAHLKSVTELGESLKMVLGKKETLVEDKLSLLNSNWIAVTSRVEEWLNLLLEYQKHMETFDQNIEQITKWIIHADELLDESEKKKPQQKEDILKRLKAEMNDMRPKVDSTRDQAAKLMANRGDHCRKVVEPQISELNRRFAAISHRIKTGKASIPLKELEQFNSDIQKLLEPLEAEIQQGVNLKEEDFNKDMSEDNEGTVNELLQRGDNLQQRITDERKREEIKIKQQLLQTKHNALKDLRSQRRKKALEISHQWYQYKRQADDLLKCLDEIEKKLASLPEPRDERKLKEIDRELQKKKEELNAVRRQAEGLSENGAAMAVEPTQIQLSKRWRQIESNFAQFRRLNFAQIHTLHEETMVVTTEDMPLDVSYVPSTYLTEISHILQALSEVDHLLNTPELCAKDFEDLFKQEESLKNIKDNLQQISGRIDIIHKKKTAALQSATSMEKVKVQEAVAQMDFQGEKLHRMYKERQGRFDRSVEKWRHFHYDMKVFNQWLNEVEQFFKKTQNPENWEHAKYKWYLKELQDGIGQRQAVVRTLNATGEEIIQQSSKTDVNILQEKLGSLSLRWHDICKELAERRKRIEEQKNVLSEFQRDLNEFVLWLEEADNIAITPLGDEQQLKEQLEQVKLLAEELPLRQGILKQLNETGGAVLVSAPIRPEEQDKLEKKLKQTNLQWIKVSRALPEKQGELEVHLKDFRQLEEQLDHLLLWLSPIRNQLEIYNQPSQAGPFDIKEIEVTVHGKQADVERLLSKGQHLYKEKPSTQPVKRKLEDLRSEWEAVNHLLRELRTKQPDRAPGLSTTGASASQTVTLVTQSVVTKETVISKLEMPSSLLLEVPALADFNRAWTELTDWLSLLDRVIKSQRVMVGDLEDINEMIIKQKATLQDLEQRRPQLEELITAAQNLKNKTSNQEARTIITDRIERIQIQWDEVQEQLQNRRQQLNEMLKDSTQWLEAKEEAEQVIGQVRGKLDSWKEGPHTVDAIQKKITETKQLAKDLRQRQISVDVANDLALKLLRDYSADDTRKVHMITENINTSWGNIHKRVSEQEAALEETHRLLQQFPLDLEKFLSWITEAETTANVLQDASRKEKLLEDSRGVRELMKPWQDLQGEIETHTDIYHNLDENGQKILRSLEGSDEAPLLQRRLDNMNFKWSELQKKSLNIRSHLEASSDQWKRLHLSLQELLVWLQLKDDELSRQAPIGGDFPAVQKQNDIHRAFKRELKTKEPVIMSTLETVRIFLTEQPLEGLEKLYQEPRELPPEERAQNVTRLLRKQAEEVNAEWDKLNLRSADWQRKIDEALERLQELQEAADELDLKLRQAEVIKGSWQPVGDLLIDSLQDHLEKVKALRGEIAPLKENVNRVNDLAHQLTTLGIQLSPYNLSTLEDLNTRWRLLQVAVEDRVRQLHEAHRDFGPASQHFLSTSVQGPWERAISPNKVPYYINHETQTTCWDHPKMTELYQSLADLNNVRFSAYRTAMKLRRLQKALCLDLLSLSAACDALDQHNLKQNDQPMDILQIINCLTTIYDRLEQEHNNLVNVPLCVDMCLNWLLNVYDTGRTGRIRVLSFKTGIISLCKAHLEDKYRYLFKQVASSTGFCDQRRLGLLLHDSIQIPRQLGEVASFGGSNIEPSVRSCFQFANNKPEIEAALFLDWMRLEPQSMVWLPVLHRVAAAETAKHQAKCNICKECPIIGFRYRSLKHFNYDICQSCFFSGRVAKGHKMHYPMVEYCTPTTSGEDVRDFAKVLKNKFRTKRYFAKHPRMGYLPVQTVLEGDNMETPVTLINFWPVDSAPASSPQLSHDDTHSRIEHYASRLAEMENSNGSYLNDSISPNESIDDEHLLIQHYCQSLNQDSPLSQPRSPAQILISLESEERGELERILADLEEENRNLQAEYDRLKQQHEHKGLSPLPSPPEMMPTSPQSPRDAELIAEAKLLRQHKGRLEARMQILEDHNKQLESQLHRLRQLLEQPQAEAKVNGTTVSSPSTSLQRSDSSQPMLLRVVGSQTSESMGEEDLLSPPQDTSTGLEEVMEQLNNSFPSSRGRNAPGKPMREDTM
UniProt P70170: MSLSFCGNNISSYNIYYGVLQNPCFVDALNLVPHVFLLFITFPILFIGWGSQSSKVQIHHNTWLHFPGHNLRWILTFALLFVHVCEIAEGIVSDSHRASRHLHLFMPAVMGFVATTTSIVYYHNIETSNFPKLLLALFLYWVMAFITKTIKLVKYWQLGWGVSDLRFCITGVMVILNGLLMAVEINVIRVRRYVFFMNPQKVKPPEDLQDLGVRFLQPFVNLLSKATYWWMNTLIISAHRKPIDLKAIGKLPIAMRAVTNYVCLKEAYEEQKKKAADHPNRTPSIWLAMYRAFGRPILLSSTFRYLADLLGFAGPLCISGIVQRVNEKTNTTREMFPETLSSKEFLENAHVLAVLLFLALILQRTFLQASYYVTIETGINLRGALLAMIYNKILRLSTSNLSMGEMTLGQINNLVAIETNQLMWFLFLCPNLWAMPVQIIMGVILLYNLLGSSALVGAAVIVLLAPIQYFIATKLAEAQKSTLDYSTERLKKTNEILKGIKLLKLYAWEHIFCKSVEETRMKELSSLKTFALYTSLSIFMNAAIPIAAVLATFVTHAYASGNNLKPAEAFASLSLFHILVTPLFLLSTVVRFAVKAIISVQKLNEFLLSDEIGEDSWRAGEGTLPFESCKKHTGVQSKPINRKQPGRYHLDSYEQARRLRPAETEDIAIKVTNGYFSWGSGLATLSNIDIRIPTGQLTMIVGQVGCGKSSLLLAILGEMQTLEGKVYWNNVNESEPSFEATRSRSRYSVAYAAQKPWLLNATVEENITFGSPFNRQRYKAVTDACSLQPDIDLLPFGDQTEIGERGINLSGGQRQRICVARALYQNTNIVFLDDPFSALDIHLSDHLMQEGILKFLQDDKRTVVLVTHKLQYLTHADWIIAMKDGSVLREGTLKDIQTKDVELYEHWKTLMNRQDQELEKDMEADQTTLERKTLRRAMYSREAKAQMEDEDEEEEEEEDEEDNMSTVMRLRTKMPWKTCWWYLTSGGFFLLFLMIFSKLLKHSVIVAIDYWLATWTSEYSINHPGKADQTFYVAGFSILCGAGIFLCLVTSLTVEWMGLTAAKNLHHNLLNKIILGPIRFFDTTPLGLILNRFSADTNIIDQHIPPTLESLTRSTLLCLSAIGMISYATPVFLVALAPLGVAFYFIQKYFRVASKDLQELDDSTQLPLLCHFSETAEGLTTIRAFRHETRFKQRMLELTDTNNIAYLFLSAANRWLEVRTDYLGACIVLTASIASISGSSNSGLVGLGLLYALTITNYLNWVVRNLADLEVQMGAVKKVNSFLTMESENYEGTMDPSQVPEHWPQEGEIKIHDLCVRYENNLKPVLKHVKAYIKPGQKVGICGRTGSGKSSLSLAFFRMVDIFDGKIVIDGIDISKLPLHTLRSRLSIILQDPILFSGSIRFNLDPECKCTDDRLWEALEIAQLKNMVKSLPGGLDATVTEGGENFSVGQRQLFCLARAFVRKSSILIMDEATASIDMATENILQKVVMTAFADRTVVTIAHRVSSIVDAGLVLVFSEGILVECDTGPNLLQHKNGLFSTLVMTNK
UniProt P07310: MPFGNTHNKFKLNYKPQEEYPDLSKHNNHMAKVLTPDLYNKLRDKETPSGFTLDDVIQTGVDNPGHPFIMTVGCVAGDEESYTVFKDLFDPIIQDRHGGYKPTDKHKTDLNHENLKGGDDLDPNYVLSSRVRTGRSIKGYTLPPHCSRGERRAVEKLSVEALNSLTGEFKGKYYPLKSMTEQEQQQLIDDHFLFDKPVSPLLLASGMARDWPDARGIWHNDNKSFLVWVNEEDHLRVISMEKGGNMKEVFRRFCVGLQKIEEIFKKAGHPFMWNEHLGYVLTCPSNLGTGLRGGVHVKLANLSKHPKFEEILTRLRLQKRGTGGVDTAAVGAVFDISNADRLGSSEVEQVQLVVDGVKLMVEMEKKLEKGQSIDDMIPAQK

Read-outs that look alike come from different tables or passages of the source. No constants are given. Whether binding was seen depends on the method and setting. Binding seen in cells or lysates may run through a third protein. Some binding calls cover weakened binding; strength is not graded here.

Assay [1] deals with full-length dystrophin (Dys427) (mouse (endogenous in heart)) (UniProt P11531). As to the kind of experiment: co-IP; wt mouse heart (ventricular wall) lysate in buffer II (HEPES 20 mM, NaCl 150 mM, Triton X100 1%, pH 7.5); IP with anti-DYS1 (anti Dys427) overnight at 4°C, protein A/G PLUS-Agarose; western blot; mdx lysate as control without dystrophin.
In assay [2] the target is T1, Kir6.2 subunit of the KATP channel (mouse (endogenous in heart)) (UniProt Q61743).
T1 sequence: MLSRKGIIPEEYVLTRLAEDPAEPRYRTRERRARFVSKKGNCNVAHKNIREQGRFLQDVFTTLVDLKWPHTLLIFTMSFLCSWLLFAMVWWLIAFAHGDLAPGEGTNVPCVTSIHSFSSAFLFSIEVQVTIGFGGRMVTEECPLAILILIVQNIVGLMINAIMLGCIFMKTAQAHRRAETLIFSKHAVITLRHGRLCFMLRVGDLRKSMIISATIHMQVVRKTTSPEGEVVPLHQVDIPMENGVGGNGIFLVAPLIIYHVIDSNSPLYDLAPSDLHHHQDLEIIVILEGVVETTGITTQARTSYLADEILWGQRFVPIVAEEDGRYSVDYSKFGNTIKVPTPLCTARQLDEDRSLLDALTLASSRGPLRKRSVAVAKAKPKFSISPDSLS
Nature of the assay: co-IP; wt mouse heart lysate in buffer II; IP with anti Kir6.2 or anti SUR2A overnight at 4°C, protein A/G PLUS-Agarose; western blot for CKm, Dys427, Kir6.2, SUR2A. (In general: A western blot detects proteins with antibodies after separation by electrophoresis.)

For assay [3], the target named is SUR2A subunit of the KATP channel (mouse (endogenous in heart)) (UniProt P70170). The description is as above.
Assay [4] has as its target full-length dystrophin (Dys427) (mouse (endogenous in heart)) (UniProt P11531). Nature of the assay: co-IP; wt mouse heart (ventricular wall) lysate in buffer II (HEPES 20 mM, NaCl 150 mM, Triton X100 1%, pH 7.5); IP with anti-DYS1 (anti Dys427) overnight at 4°C, protein A/G PLUS-Agarose; western blot; mdx lysate as control without dystrophin. The source holds these as a separate data set.

Take “creatine kinase muscle isoform (CKm) (from UniProt P07310 1-381) (enzyme)”: the binding entry in assay [1] is listed as “binds”. For the molecule “full-length dystrophin (Dys427) (from UniProt P11531 1-3678)”, the binding entry in assay [2] and in assay [3] was “binds” each time.

B1: α-Syntrophin (protein, UniProt Q61234 1-503)
chain: MASGRRAPRTGLLELRCGAGSGAGGERWQRVLLSLAEDALTVSPADGEPGPEPEPAQLNGAAEPGAAPPQLPEALLLQRRRVTVRKADAGGLGISIKGGRENKMPILISKIFKGLAADQTEALFVGDAILSVNGEDLSSATHDEAVQALKKTGKEVVLEVKYMKEVSPYFKNSAGGTSVGWDSPPASPLQRQPSSPGPQPRNLSEAKHVSLKMAYVSRRCTPTDPEPRYLEICAADGQDAVFLRAKDEASARSWAGAIQAQIGTFIPWVKDELQALLTATGTAGSQDIKQIGWLTEQLPSGGTAPTLALLTEKELLFYCSLPQSREALSRPTRTAPLIATSSAHRLVHSGPSKGSVPYDAELSFALRTGTRHGVDTHLFSVESPQELAAWTRQLVDGCHRAAEGIQEVSTACTWNGRPCSLSVHIDKGFTLWAAEPGAARAMLLRQPFEKLQMSSDDGTSLLFLDFGGAEGEIQLDLHSCPKTMVFIIHSFLSAKVTRLGLLA
As for B1, the binding result in assay [4] is listed as “binds”.

B2: Kir6.2 subunit of the KATP channel (protein, UniProt Q61743 1-390)
chain: MLSRKGIIPEEYVLTRLAEDPAEPRYRTRERRARFVSKKGNCNVAHKNIREQGRFLQDVFTTLVDLKWPHTLLIFTMSFLCSWLLFAMVWWLIAFAHGDLAPGEGTNVPCVTSIHSFSSAFLFSIEVQVTIGFGGRMVTEECPLAILILIVQNIVGLMINAIMLGCIFMKTAQAHRRAETLIFSKHAVITLRHGRLCFMLRVGDLRKSMIISATIHMQVVRKTTSPEGEVVPLHQVDIPMENGVGGNGIFLVAPLIIYHVIDSNSPLYDLAPSDLHHHQDLEIIVILEGVVETTGITTQARTSYLADEILWGQRFVPIVAEEDGRYSVDYSKFGNTIKVPTPLCTARQLDEDRSLLDALTLASSRGPLRKRSVAVAKAKPKFSISPDSLS
With B2, the binding result in assay [4] is given as “binds”.
